Some of the results follow. The data scatter; read single values as rough.
Assays:
[1] = compound: ClCC(=O)N[C@@H]1CCCc2ccccc12; test: log2 mean competition ratio of IA-DTB cysteine labelling (DMSO/compound) (log2 ratio); higher = stronger cysteine engagement by compound; details: treatment time: 4 h, cell line lysate: HEK293T
Experimental: (§1)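 IA-DTB competitive cysteine chemoproteomics in HEK293T RIPA lysate. Lysates were treated with compound 29 or 30 at 50 or 200 µM for 4 h, then IA-DTB (500 µM, 1 h), trypsin-digested, NeutrAvidin-enriched and analysed by diaPASEF. Competition ratio = intensity DMSO / intensity compound (n=4 treated, n=64 DMSO); binding: mean log2 CR ≥ 1 and p ≤ 0.05 plus QC filters. Target is the cysteine site.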

By UniProt entry, the sequences of proteins in these tests, tags left out. Where a name states a change or a piece, a line headed by the entry shows the natural chain unless it says otherwise. Residues count along the entry.
UniProt P35579, 83-104: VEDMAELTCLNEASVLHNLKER
UniProt Q96DP5: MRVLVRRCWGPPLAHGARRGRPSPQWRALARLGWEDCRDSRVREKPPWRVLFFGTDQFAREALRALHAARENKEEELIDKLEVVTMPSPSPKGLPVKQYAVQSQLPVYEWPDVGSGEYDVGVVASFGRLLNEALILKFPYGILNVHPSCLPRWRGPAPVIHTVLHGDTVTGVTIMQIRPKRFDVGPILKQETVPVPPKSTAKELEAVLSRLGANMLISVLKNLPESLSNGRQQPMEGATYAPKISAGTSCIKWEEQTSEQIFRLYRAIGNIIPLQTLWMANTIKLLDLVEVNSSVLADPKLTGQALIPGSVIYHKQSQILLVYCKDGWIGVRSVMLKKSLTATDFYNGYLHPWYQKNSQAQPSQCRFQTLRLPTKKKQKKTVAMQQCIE
UniProt Q13614: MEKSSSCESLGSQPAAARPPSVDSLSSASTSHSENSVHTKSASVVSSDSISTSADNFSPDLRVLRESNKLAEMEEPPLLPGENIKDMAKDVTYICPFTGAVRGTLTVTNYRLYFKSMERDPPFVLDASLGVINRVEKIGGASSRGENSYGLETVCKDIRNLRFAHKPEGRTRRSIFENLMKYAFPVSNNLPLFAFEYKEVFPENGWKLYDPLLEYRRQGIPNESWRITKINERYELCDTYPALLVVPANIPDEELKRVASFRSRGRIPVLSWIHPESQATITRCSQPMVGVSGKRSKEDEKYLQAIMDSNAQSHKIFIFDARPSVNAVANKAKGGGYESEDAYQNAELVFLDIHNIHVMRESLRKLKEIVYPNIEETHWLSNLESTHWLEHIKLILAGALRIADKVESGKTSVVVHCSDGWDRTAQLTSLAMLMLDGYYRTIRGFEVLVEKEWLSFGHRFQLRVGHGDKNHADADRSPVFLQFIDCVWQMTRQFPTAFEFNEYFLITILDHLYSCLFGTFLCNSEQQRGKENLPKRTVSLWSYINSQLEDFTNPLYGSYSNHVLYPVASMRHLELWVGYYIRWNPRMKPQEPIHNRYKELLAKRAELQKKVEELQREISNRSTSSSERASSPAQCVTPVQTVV
UniProt Q969V6, 781-813: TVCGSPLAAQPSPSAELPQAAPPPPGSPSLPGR
UniProt P42285, 804-824: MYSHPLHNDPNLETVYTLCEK
UniProt Q6P1R3, 74-100: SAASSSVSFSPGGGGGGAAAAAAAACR
UniProt O43795: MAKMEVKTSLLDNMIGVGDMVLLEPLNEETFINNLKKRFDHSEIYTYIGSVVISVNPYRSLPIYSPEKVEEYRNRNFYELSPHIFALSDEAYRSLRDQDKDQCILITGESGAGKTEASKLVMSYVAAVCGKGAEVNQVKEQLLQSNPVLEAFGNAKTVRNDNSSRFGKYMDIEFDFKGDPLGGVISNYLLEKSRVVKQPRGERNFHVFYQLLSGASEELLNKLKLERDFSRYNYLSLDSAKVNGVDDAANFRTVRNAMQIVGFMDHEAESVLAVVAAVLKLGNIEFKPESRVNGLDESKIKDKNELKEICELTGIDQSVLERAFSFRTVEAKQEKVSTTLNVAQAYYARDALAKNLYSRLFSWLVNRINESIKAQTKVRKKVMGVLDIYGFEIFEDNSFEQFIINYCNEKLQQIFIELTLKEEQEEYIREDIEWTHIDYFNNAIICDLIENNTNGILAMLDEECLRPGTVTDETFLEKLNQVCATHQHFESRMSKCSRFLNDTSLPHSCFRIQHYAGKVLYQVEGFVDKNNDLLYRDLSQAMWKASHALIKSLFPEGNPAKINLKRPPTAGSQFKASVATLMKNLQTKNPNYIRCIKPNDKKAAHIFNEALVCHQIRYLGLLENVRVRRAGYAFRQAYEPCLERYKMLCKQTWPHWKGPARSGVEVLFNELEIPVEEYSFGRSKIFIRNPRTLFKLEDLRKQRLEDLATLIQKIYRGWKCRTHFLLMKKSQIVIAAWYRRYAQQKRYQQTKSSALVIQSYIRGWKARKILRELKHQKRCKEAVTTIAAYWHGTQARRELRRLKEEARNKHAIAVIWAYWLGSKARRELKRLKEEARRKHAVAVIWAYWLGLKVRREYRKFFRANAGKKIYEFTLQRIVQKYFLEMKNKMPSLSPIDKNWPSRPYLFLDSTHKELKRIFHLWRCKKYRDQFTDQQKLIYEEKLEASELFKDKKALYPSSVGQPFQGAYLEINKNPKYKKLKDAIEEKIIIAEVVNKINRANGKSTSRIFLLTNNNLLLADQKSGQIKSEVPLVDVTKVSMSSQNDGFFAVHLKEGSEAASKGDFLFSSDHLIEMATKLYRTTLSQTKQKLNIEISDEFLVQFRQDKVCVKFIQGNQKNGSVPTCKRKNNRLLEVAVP
UniProt Q69YI7: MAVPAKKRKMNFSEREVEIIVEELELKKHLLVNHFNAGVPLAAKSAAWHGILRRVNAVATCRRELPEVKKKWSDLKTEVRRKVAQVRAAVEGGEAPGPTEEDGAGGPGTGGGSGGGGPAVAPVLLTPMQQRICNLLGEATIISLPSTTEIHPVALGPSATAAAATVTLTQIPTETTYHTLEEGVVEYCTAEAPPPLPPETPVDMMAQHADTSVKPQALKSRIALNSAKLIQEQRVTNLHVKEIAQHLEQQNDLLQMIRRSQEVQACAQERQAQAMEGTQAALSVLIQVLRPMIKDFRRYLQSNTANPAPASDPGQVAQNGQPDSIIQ
UniProt Q14872: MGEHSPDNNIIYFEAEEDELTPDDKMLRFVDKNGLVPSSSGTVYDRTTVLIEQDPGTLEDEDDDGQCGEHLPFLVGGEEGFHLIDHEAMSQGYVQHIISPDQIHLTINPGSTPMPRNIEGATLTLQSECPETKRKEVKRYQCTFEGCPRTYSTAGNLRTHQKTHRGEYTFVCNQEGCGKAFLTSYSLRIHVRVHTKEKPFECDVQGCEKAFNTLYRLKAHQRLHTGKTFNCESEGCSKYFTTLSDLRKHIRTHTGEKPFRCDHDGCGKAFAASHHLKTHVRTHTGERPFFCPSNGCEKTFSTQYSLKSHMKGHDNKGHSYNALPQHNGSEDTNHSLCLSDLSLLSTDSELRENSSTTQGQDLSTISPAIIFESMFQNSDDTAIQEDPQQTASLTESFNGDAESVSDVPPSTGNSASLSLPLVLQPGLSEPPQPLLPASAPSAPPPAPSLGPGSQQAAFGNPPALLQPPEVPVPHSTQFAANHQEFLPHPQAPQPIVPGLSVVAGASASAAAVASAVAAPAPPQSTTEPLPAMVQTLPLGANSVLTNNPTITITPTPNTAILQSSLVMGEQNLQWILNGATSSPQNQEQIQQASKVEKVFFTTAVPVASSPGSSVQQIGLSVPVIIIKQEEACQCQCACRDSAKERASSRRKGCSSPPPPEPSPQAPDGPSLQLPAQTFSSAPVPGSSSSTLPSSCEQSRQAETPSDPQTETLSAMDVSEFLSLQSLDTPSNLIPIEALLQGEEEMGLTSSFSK
UniProt Q9Y2Z2: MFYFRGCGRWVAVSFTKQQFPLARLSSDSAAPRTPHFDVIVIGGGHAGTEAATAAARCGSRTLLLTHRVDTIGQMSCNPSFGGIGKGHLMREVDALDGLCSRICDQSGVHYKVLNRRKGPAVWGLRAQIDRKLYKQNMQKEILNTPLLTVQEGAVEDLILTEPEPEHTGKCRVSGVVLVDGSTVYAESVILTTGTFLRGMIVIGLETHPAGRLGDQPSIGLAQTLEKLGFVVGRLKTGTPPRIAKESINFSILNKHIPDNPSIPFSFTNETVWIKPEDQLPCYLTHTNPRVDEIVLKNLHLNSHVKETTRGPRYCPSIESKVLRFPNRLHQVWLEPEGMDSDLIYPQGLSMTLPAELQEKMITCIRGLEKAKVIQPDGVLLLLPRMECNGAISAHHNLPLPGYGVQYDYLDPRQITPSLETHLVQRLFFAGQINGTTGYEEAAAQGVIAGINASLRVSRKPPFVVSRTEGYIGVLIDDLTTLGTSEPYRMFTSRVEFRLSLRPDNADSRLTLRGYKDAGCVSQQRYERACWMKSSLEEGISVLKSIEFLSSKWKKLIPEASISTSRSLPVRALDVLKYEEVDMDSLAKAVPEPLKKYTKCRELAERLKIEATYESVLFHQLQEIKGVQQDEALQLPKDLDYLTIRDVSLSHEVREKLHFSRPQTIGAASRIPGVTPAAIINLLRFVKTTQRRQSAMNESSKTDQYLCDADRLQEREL
UniProt Q9UM54, whole entry, looked up: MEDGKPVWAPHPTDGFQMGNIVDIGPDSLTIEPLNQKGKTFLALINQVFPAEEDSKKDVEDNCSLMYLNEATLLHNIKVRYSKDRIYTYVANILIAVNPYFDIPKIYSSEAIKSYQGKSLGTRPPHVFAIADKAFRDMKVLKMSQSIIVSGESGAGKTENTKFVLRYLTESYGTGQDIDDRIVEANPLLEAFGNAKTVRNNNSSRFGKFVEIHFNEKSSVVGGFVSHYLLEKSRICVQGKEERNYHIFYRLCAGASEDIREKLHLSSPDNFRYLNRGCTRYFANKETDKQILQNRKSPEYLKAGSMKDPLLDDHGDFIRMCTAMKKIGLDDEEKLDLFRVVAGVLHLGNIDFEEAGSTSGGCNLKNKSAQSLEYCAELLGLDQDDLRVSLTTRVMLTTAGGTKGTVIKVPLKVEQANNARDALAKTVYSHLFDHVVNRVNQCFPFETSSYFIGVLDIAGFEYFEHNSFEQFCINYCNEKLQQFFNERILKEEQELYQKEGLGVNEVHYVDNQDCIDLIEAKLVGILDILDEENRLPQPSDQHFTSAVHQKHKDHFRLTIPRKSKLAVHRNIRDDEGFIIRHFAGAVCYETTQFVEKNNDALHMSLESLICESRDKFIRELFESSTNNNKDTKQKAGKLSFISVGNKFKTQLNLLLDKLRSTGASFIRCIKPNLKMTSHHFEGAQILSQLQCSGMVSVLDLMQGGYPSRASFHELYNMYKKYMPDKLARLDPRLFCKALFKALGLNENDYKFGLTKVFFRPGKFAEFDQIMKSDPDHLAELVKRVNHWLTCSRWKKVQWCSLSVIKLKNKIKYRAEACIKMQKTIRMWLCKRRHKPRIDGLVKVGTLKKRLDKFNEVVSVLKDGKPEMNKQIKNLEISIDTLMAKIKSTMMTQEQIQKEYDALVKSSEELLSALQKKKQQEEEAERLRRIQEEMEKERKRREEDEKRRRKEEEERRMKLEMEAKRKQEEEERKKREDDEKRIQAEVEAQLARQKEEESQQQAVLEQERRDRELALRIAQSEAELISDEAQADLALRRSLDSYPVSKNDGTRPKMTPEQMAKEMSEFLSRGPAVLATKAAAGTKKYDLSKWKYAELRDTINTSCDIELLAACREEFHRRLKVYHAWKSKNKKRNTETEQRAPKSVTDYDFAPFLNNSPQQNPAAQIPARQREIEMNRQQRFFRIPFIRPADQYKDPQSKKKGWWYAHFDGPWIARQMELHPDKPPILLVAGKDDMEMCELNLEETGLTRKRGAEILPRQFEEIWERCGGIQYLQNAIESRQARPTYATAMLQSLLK
UniProt O94832: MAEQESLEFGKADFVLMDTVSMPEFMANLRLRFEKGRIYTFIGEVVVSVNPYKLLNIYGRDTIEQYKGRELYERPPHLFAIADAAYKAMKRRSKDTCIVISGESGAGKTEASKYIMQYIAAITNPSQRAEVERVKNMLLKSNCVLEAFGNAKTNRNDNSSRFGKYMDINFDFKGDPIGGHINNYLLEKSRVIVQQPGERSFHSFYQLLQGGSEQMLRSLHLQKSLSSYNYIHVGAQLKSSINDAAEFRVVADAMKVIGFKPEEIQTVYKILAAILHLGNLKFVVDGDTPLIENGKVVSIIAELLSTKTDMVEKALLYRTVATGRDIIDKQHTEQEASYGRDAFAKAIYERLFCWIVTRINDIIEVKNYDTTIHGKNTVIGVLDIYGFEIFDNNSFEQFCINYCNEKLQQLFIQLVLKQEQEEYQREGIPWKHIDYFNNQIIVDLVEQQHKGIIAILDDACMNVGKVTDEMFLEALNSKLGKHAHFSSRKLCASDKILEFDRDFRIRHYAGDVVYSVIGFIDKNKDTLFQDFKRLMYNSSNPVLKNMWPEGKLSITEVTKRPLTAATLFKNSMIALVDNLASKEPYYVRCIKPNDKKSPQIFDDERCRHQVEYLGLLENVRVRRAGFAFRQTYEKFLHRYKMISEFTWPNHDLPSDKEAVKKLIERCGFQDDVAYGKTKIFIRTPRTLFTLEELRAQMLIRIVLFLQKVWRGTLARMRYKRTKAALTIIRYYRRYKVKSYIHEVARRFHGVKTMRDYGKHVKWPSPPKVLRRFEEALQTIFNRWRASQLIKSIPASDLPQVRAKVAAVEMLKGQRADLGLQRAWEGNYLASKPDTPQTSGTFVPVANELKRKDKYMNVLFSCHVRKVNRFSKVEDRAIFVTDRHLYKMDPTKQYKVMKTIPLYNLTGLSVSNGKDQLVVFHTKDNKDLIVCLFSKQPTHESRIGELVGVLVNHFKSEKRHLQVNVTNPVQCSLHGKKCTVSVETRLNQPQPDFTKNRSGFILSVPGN

[2] = compound: ClCC(=O)N[C@H]1CCCc2ccccc12; test: as above; details: treatment time: 4 h, cell line lysate: HEK293T
Experimental: as §1

## MYO9A C1226 (UniProt B2RTY4)
[1]; 50 µM
  log2 mean competition ratio: -0.142
[1]; 200 µM
  log2 mean competition ratio: -0.0884
[2]; 50 µM
  log2 mean competition ratio: -0.0125
[2]; 200 µM
  log2 mean competition ratio: 0.00777

## MYH9 C1379 (UniProt P35579)
[1]; 50 µM
  log2 mean competition ratio: -0.294
[1]; 200 µM
  log2 mean competition ratio: -0.359
[2]; 50 µM
  log2 mean competition ratio: -0.756
[2]; 200 µM
  log2 mean competition ratio: -0.376

## MTR C120 (UniProt Q99707)
[1]; 50 µM
  log2 mean competition ratio: 0.0242
[1]; 200 µM
  log2 mean competition ratio: -0.191
[2]; 50 µM
  log2 mean competition ratio: 0.115
[2]; 200 µM
  log2 mean competition ratio: 0.0108

## MYH14 C954 (UniProt Q7Z406)
[1]; 50 µM
  log2 mean competition ratio: -0.183
[1]; 200 µM
  log2 mean competition ratio: 0.418
[2]; 50 µM
  log2 mean competition ratio: -0.309
[2]; 200 µM
  log2 mean competition ratio: 0.496

## MTCH1 C385 (UniProt Q9NZJ7)
[1]; 50 µM
  log2 mean competition ratio: 0.0334
[1]; 200 µM
  log2 mean competition ratio: -0.303
[2]; 50 µM
  log2 mean competition ratio: 0.489
[2]; 200 µM
  log2 mean competition ratio: -0.0806

## MTFMT C37 (UniProt Q96DP5)
[1]; 50 µM
  log2 mean competition ratio: -0.126
[1]; 200 µM
  log2 mean competition ratio: 0.349
[2]; 50 µM
  log2 mean competition ratio: -0.188
[2]; 200 µM
  log2 mean competition ratio: 0.414

## MTMR2 C635 (UniProt Q13614)
[1]; 50 µM
  log2 mean competition ratio: -0.262
[1]; 200 µM
  log2 mean competition ratio: -0.271
[2]; 50 µM
  log2 mean competition ratio: 0.295
[2]; 200 µM
  log2 mean competition ratio: -0.141

## MTERF4 C307 (UniProt Q7Z6M4)
[1]; 50 µM
  log2 mean competition ratio: -0.129
[1]; 200 µM
  log2 mean competition ratio: -0.142
[2]; 50 µM
  log2 mean competition ratio: -0.335
[2]; 200 µM
  log2 mean competition ratio: -0.0811

## MRTFA C783 (UniProt Q969V6)
[1]; 50 µM
  log2 mean competition ratio: 0.0459
[1]; 200 µM
  log2 mean competition ratio: 0.22
[2]; 200 µM
  log2 mean competition ratio: -0.428

## MSH6 C1337 (UniProt P52701)
[1]; 50 µM
  log2 mean competition ratio: 0.00142
[1]; 200 µM
  log2 mean competition ratio: 0.0493
[2]; 50 µM
  log2 mean competition ratio: 0.0528
[2]; 200 µM
  log2 mean competition ratio: 0.0206

## MTREX C822 (UniProt P42285)
[1]; 50 µM
  log2 mean competition ratio: 0.103
[1]; 200 µM
  log2 mean competition ratio: 0.0806
[2]; 50 µM
  log2 mean competition ratio: 0.00514
[2]; 200 µM
  log2 mean competition ratio: -0.0818

## MTCH2 C79
[1]; 50 µM
  log2 mean competition ratio: 0.176
[1]; 200 µM
  log2 mean competition ratio: -0.179
[2]; 50 µM
  log2 mean competition ratio: -0.243
[2]; 200 µM
  log2 mean competition ratio: -0.183

## MYH9 C988 (UniProt P35579)
[1]; 50 µM
  log2 mean competition ratio: -0.32
[1]; 200 µM
  log2 mean competition ratio: 0.112
[2]; 50 µM
  log2 mean competition ratio: -0.398
[2]; 200 µM
  log2 mean competition ratio: 0.0489

## MSANTD2 C99 (UniProt Q6P1R3)
[1]; 50 µM
  log2 mean competition ratio: -0.00618
[1]; 200 µM
  log2 mean competition ratio: -0.135
[2]; 50 µM
  log2 mean competition ratio: 0.166
[2]; 200 µM
  log2 mean competition ratio: 0.156

## MYO1B C483 (UniProt O43795)
[1]; 50 µM
  log2 mean competition ratio: 0.458
[1]; 200 µM
  log2 mean competition ratio: -0.436
[2]; 50 µM
  log2 mean competition ratio: 0.345
[2]; 200 µM
  log2 mean competition ratio: -0.508

## NAIF1 C266 (UniProt Q69YI7)
[1]; 50 µM
  log2 mean competition ratio: 0.426
[1]; 200 µM
  log2 mean competition ratio: -0.339
[2]; 50 µM
  log2 mean competition ratio: 0.142
[2]; 200 µM
  log2 mean competition ratio: -0.355

## MTF1 C129 (UniProt Q14872)
[1]; 50 µM
  log2 mean competition ratio: -0.0266
[1]; 200 µM
  log2 mean competition ratio: -0.199
[2]; 50 µM
  log2 mean competition ratio: -0.129
[2]; 200 µM
  log2 mean competition ratio: -0.0719

## MYH9 C91 (UniProt P35579)
[1]; 50 µM
  log2 mean competition ratio: -0.0481
[1]; 200 µM
  log2 mean competition ratio: 0.391
[2]; 50 µM
  log2 mean competition ratio: -0.454
[2]; 200 µM
  log2 mean competition ratio: 0.253

## MTO1 C100 (UniProt Q9Y2Z2)
[1]; 50 µM
  log2 mean competition ratio: -0.101
[1]; 200 µM
  log2 mean competition ratio: 0.271
[2]; 50 µM
  log2 mean competition ratio: 0.00885
[2]; 200 µM
  log2 mean competition ratio: 0.16

## MYO6 C252 (UniProt Q9UM54)
[1]; 50 µM
  log2 mean competition ratio: 0.0344
[1]; 200 µM
  log2 mean competition ratio: -0.0249
[2]; 50 µM
  log2 mean competition ratio: -0.24
[2]; 200 µM
  log2 mean competition ratio: -0.107

## MUL1 C113 (UniProt Q969V5)
[1]; 50 µM
  log2 mean competition ratio: 0.000956
[1]; 200 µM
  log2 mean competition ratio: 0.052
[2]; 50 µM
  log2 mean competition ratio: 0.091
[2]; 200 µM
  log2 mean competition ratio: -0.0599

## MYO1D C491 (UniProt O94832)
[1]; 50 µM
  log2 mean competition ratio: -0.109
[1]; 200 µM
  log2 mean competition ratio: 0.0484
[2]; 50 µM
  log2 mean competition ratio: -0.049
[2]; 200 µM
  log2 mean competition ratio: -0.111
